Experimental data as given in patent US7842499B2, “Substrates, devices, and methods for cellular assays” (Platypus Technologies, LLC, priority 2006, dated 2010).

Assays:
[1] = Investigation of phospholipid influence on liquid crystal alignment; design: key: C=cholesteric alignment; U=unaligned; H=homeotropically aligned; settings: for Liquid crystal alignment, Chol: cholesterol on glass slide
3T3 cells = assay: Survey of liquid crystals for alignment by cells; settings: cultured 3T3 cells
[2] = 2 ul 0.01 M in chloroform on glass slide

Structure (SMILES) | Liquid crystal alignment, DOLPC [1, 2] | Liquid crystal alignment, DOPC [1, 2] | Liquid crystal alignment, DOPE [1, 2] | Liquid crystal alignment, DOPG [1, 2] | Liquid crystal alignment, DOPS [1, 2] | Liquid crystal alignment, Chol [1] | Liquid crystal alignment, 3T3 cells (3T3 cells) | Liquid crystal alignment, DOPA ([1]; DOPA, 2 ul 0.01 M in chloroform on glass slide)
CCCCCc1ccc(-c2ccc(C#N)cc2)cc1 [5CB, 4-cyano-4′-pentylbiphenyl] | H | H | H | H | U | U | Homeotropic | 
CCCCCCCCc1ccc(-c2ccc(C#N)cc2)cc1 [4OCB, 4′-octyl-4-biphenyl-carbonitrile] |  |  |  |  |  |  | Homeotropic | 
CCCCCC[C@H]1CC[C@H](c2ccc(N=C=S)cc2)CC1 [6CHBT, 1-(trans-4-hexylcyclohexyl)-4-isothiocyanato-benzene] | H | H | H | H | U | U | Homeotropic | H
